Laboratory results published in article PMC8149633.
Results are given in words; binding and its absence hold for the method and conditions named. Binding seen in cells or lysates may run through a third protein. These calls come from enrichment with a bait or labelling near it, and not all partners need be listed.

Chains of the proteins cited; added tags and fusions are not shown.
UniProt Q12884: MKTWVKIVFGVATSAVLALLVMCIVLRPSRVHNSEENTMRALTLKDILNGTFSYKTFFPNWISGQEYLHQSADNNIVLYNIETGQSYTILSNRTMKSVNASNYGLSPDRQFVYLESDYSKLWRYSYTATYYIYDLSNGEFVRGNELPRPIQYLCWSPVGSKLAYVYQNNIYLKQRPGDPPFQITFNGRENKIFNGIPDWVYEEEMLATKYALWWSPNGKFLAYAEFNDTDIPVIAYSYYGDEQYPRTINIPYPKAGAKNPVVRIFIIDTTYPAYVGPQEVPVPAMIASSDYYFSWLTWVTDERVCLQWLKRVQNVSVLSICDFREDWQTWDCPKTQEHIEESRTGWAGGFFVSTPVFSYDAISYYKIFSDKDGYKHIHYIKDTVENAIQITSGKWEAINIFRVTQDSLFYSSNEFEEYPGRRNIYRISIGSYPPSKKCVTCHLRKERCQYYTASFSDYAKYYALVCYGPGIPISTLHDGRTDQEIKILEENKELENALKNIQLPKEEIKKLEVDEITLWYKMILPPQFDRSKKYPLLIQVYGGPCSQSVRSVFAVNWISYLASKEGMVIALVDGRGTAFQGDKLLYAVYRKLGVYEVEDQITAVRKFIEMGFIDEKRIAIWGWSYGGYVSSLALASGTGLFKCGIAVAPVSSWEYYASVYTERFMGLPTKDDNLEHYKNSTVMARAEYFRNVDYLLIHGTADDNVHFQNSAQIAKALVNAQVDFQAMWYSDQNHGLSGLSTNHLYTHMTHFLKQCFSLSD
UniProt P06733: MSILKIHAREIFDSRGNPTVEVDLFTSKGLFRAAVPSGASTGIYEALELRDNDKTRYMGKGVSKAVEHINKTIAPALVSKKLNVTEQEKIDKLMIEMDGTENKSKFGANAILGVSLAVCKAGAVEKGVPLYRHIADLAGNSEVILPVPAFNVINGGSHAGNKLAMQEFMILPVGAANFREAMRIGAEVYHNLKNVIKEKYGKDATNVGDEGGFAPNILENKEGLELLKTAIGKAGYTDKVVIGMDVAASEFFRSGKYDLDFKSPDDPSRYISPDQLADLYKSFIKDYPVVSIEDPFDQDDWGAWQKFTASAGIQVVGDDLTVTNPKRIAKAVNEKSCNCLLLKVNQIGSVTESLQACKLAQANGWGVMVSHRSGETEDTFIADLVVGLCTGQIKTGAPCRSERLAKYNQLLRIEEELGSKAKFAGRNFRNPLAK

Molecular target: Fibroblast activation protein alpha (FAP) in HCT116 cell lysates (human (endogenous in HCT116)) (UniProt Q12884)
Assay: affinity purification with mass spectrometry; HCT116 cell lysates immunoprecipitated with anti-FAP antibody (IgG as negative control), protein A agarose, silver staining, LC/MS (Orbitrap Fusion LUMOS)

binding: binds
Substance: Enolase1 (ENO1) (from UniProt P06733 1-434)
